Where a name gives a salt, the structure may show the parent alone.
Test: Sensory evaluation of pork from swine fed diets with cysteamine HCl (Example 3)
Format: in vivo
Settings: 150 g cysteamine hydrochloride per ton of feed

NCCS [Cysteamine Hydrochloride, cysteamine hydrochloride]
sensory review of meat flavor and attributes, treated vs untreated swine: no significant difference
